Reference: patent US11479568B2, “Silacrown ethers, pharmaceutical compositions thereof, and therapeutic applications thereof” (priority 2020, dated 2022)
Some results were stated once for a whole list of compounds, not compound by compound. For at least one compound, name, drawing or mass did not settle the structure.

Tested on: adult albino Sprague-Dawley rats
Test: Acute oral toxicity study in rats (GLP)
Format: in vivo, rat
From the text: No mortality was observed during the study. […] Animals were asymptomatic by day 3. […] Thus, crown ethers and silacrown ethers of similar cavity size behave similarly, but the silacrown ethers have dramatically lower toxicity.

C[Si]1(C)OCCOCCOCCOCCOCCO1 [dimethylsila-17-crown-6]
acute oral LD50: greater than 5000 mg/kg
